The subject of this experiment is P388 leukemia ip, CD2F1 mice, survival T/C. Description: NCI In Vivo Anticancer Drug Screen. Data for tumor model P388 Leukemia (intraperitoneal) in CD2F1 (CDF1) mice. Conditions: T/C endpoint: median survival time, higher T/C = longer survival.
[1] abbreviates: dose: 240.0 mg/kg/injection, schedule: Q01DX005 (ip), vehicle: saline with Tween-80.
Where [2] appears, read: dose: 100.0 mg/kg/injection, schedule: Q01DX009 (ip), vehicle: saline with Tween-80.
The mark [3] stands for this setting: dose: 50.0 mg/kg/injection, schedule: Q01DX009 (ip), vehicle: Klucel (hydroxypropylcellulose) (HPC).
[4] abbreviates: dose: 50.0 mg/kg/injection, schedule: Q01DX009 (ip), vehicle: saline.
Where [5] appears, read: dose: 100.0 mg/kg/injection, schedule: Q01DX009 (ip), vehicle: saline.
The mark [6] stands for this setting: dose: 400.0 mg/kg/injection, schedule: Q01DX001 (ip), vehicle: saline with Tween-80.

The list shows only some results of the screen, not a fair sample: it is rich in T/C values a quarter to a half above the control, in often repeated tests (any T/C) and in doses without a T/C. Other doses and runs of a compound stand elsewhere. T/C gives the treated animals as a percentage of the vehicle group. Some entries give survivors of the animals treated and no T/C: the source holds a T/C of zero for them, seemingly a mark for toxic or unscored doses. Some survivor counts are full or nearly so, which does not show that the dose was tolerated: survival well below the control is almost never listed, so the zero probably covers shortened survival too. Counts of survivors are from the toxicity check (mostly the fifth day) where no day follows; animals may have died later. Schedule codes are those of the source, read here as Q, the interval in days (D) or hours (H), X, the number of doses. Brackets with × count equal records among those shown. Where survival is the endpoint, this PubChem deposit counts one and a half times the control or more as active, and values a quarter to a half above the control carry no call in these data; other NCI protocols may use other cut-offs. Some T/C values are followed by the survivors on the day toxicity was checked, most often the fifth; without a count, all were alive then.

Take `COc1cccc2c1C(=O)c1c(O)c3c(c(O)c1C2=O)C[C@@](O)(C(=O)COC(=O)Cc1cccc2ccccc12)C[C@@H]3OC1CC(N)C(O)C(C)O1` (stereo not given in full): the T/C is, setting by setting: (dose: 0.5 mg/kg/injection, schedule: Q01DX009 (ip), vehicle: saline with Tween-80) 139 % of control; (dose: 1.0 mg/kg/injection, schedule: Q01DX009 (ip), vehicle: saline with Tween-80) 145 % of control; (dose: 2.0 mg/kg/injection, schedule: Q01DX009 (ip), vehicle: saline with Tween-80) 136 % of control; (dose: 8.0 mg/kg/injection, schedule: Q01DX009 (ip), vehicle: saline with Tween-80) 128 % of control. Also, the survivor count (dose: 6.25 mg/kg/injection, schedule: Q01DX009 (ip), vehicle: other) was 6 of 6; the survivor count (dose: 8.0 mg/kg/injection, schedule: Q01DX009 (ip), vehicle: other) is on record as 6 of 6; the survivor count (dose: 8.0 mg/kg/injection, schedule: Q01DX009 (ip), vehicle: saline) is 9 of 10; the survivor count (dose: 12.5 mg/kg/injection, schedule: Q01DX009 (ip), vehicle: other) is listed as 6 of 6; the survivor count (dose: 16.0 mg/kg/injection, schedule: Q01DX009 (ip), vehicle: saline with Tween-80) was 10 of 10; the survivor count (dose: 16.0 mg/kg/injection, schedule: Q01DX009 (ip), vehicle: saline) is 7 of 10.

On to `CC1(C)N=C(N)N=C(N)N1c1ccc(CCc2ccc(S(=O)(=O)F)cc2)c(Cl)c1`, for which the T/C is 136 % of control (dose: 50.0 mg/kg/injection, schedule: Q04DX003 (ip), vehicle: saline with Tween-80) and 131 % of control [5 of 6 alive] (dose: 75.0 mg/kg/injection, schedule: Q04DX003 (ip), vehicle: saline sonified).

On to `CC[CH2][Sn]([Cl])([Cl])[CH2]CC.Oc1ccccc1C=NCCN=Cc1ccccc1O`, for which the T/C by setting is: (dose: 1.25 mg/kg/injection, schedule: Q01DX009 (ip), vehicle: gum acacia) 125 % of control; (dose: 2.5 mg/kg/injection, schedule: Q01DX009 (ip), vehicle: gum acacia) 134 % of control. Also, under “dose: 10.0 mg/kg/injection, schedule: Q01DX009 (ip), vehicle: gum acacia”, the survivor count is recorded as 2 of 6.

As to `CCC(C)C1=NCCCN1` (stereo not given), the survivor count (dose: 200.0 mg/kg/injection, schedule: Q01DX001 (ip), vehicle: saline) was 2 of 6 and the survivor count (dose: 400.0 mg/kg/injection, schedule: Q01DX001 (ip), vehicle: saline) is recorded as 0 of 6.

As to `COc1cccc2c1C(=O)c1c(O)c3c(c(O)c1C2=O)C[C@@](O)(/C(C)=N/NC(=O)c1ccc(Cl)c(Cl)c1)C[C@@H]3OC1CC(N)C(O)C(C)O1` (stereo not given in full), the T/C runs as follows: (dose: 0.25 mg/kg/injection, schedule: Q01DX009 (ip), vehicle: water, evaluated on day 30) 137 % of control; (dose: 0.25 mg/kg/injection, schedule: Q01DX009 (ip), vehicle: water, evaluated on day 45) 132 % of control; (dose: 0.5 mg/kg/injection, schedule: Q01DX009 (ip), vehicle: water) 138 % of control; (dose: 2.5 mg/kg/injection, schedule: Q01DX001 (ip), vehicle: water) 138 % of control; (dose: 4.0 mg/kg/injection, schedule: Q01DX009 (ip), vehicle: water) 132 % of control. The survivor count (dose: 8.0 mg/kg/injection, schedule: Q01DX009 (ip), vehicle: water) is 6 of 6 (2×); the survivor count (dose: 16.0 mg/kg/injection, schedule: Q01DX009 (ip), vehicle: water) was 4 of 6; the survivor count (dose: 40.0 mg/kg/injection, schedule: Q01DX001 (ip), vehicle: water) is 6 of 6; the survivor count (dose: 80.0 mg/kg/injection, schedule: Q01DX001 (ip), vehicle: water) is recorded as 0 of 6.

`CN=C(N)NN=C(c1cccc(F)c1)c1cccc(F)c1`: the survivor count is 1 of 6 (dose: 200.0 mg/kg/injection, schedule: Q04DX002 (ip), vehicle: saline with Tween-80) and 1 of 6 (dose: 400.0 mg/kg/injection, schedule: Q04DX002 (ip), vehicle: saline with Tween-80).

As to `CC1C/C(=C\N=[N+]=[N-])C(=O)O1` (stereo not given), the survivor count (dose: 120.0 mg/kg/injection, schedule: Q01DX005 (ip), vehicle: saline with Tween-80) is listed as 0 of 6 and the survivor count under setting [1] is listed as 0 of 6.

Consider `CCC1(C)C(C#N)C(=O)NC(=O)C1C#N` (stereo not given), for which the survivor count under setting [2] is reported as 2 of 6.

In the case of `O=CC1C(=O)NC(=O)NC1=O`, the survivor count (dose: 200.0 mg/kg/injection, schedule: Q04DX003 (ip), vehicle: saline) is 3 of 6.

On to `CC(=Nc1ccc(N(C)C)cc1)c1ccccc1`, for which the survivor count under setting [1] was 2 of 6.

For `[Br][Hg][CH]1CCC2CCCC1O2` (stereo not given), under setting [3], the survivor count is reported as 1 of 6.

For the compound `NC(N)=NCCNC(=O)C1CCC(N)C1` (stereo not given), the survivor count runs as follows: (dose: 1.25 mg/kg/injection, schedule: Q01DX009 (ip), vehicle: saline) 6 of 6; (dose: 2.5 mg/kg/injection, schedule: Q01DX009 (ip), vehicle: saline) 6 of 6; (dose: 5.0 mg/kg/injection, schedule: Q01DX009 (ip), vehicle: saline) 6 of 6.

For `COC1CC(OC2CCC3(C)C(=CCC4C3C(OC(C)=O)C(OC(=O)CC(C)C)C3(C)C(C(C)=O)CCC43O)C2)OC(C)C1OC1CC(OC)C(OC2CC(OC)C(OC3OC(C)C(OC4OC(CO)C(O)C(O)C4O)C(OC)C3O)C(C)O2)C(C)O1` (stereo not given), under “dose: 33.0 mg/kg/injection, schedule: Q01DX005 (ip), vehicle: Klucel (hydroxypropylcellulose) (HPC)”, the survivor count is listed as 0 of 6.

For the compound `CC1(C)COCN1COC1CCCCC1`, the T/C is, setting by setting: under setting [4], 132 % of control; under setting [5], 141 % of control; (dose: 150.0 mg/kg/injection, schedule: Q01DX009 (ip), vehicle: saline) 147 % of control.

For `O=C(CCSSCCC(=O)ON1C(=O)CCC1=O)ON1C(=O)CCC1=O`, the survivor count is 6 of 6 (dose: 50.0 mg/kg/injection, schedule: Q01DX009 (ip), vehicle: saline with Tween-80); 6 of 6 under setting [2]; 6 of 6 (dose: 200.0 mg/kg/injection, schedule: Q01DX009 (ip), vehicle: saline with Tween-80).

For `COc1ccc(/C(=C/c2c(C(=O)O)oc3ccccc23)c2ccccc2)cc1`, the survivor count under setting [6] was 1 of 6.

Regarding `C[CH2][Sn]([CH2]C)([O]C(C)=O)[O][Sn]([CH2]C)([CH2]C)[O]C(C)=O`, the T/C (dose: 0.78 mg/kg/injection, schedule: Q01DX009 (ip), vehicle: saline) is 133 % of control; the T/C (dose: 1.56 mg/kg/injection, schedule: Q01DX009 (ip), vehicle: saline) is 134 % of control; the T/C (dose: 3.12 mg/kg/injection, schedule: Q01DX009 (ip), vehicle: saline) was 126 % of control [4 of 6 alive]. The survivor count reads like this: (dose: 6.25 mg/kg/injection, schedule: Q01DX009 (ip), vehicle: saline) 0 of 6; (dose: 12.5 mg/kg/injection, schedule: Q01DX009 (ip), vehicle: saline) 3 of 6; (dose: 25.0 mg/kg/injection, schedule: Q01DX009 (ip), vehicle: saline) 0 of 6; under setting [4], 0 of 6; under setting [5], 0 of 6; (dose: 200.0 mg/kg/injection, schedule: Q01DX009 (ip), vehicle: saline) 0 of 6.

Regarding `COc1ccc(-c2cc3cc(OC)c(OC)cc3cn2)cc1OC`, under setting [5], the survivor count is on record as 6 of 6.

`NC(CCl)=NCCOC12CC3CC(CC(C3)C1)C2`: the survivor count by setting is: (dose: 120.0 mg/kg/injection, schedule: Q01DX005 (ip), vehicle: saline) 3 of 6; (dose: 240.0 mg/kg/injection, schedule: Q01DX005 (ip), vehicle: saline) 0 of 6.

Turning to `CCN(Cc1ccc(Cl)c(Cl)c1)c1ccc2nc(N)nc(N)c2c1C`, the survivor count under setting [3] is on record as 6 of 6 and the survivor count (dose: 100.0 mg/kg/injection, schedule: Q01DX009 (ip), vehicle: Klucel (hydroxypropylcellulose) (HPC)) is 0 of 6.

`CC12CC(CC1=O)CC2S(=O)(=O)O` (stereo not given): the survivor count under setting [6] is on record as 3 of 6.

Source of the values: PubChem BioAssay AID330 (DTP/NCI, 2004).
